Experimental data taken from patent publication EP4831176A1, “BICYCLIC FUSED HETEROAROMATIC RING DERIVATIVE, AND PHARMACEUTICAL COMPOSITION AND USE THEREOF” (dated 2026).
Structures were worked out from names or drawings and are uncertain.

By UniProt entry, the sequences of proteins in these tests, tags left out.
UniProt O75530, whole entry: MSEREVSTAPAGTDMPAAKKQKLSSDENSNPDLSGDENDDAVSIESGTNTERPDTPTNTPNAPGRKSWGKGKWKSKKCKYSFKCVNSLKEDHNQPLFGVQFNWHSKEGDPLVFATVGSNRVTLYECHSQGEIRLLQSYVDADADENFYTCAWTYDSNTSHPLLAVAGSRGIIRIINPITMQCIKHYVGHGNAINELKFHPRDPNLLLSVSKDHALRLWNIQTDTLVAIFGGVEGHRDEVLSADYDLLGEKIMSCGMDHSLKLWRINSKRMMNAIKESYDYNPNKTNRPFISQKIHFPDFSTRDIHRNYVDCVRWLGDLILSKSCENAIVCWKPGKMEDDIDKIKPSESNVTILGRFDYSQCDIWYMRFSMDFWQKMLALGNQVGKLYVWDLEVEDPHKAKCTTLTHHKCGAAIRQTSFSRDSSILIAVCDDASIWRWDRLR

Tests used:
[1] = system: Pfeiffer cells; assay: Proliferation inhibition of Pfeiffer tumor cells, Cell Titer-Glo; conditions: read-out: CTG IC50, 144 hours incubation
Text: In this experiment, Cell Titer-Glo reagent was used to quantitatively analyze the proliferation activity of Pfeiffer cells to detect the inhibitory ability of the compounds on tumor cell proliferation. The specific steps were as follows: • 1. Pfeiffer cells were purchased from Nanjing Cobioer (purchased from ATCC, Catalog No. #CRL2632), subcultured and maintained in logarithmic growth state using RPMI-1640 complete medium (containing 10% v/v fetal bovine serum) according to the supplier's recommended conditions. […] Before cell seeding, cells were collected in a centrifuge tube, centrifuged at 250 rcf for 3 minutes, and the culture medium was discarded. The cells were resuspended in fresh complete medium, and 20 µL of the cell suspension was taken to calculate the cell concentration using a Countstar cell counter. After adjusting the density, cells were seeded into a 384-well plate at 2,000 cells/45 µL and pre-incubated in a 37°C, 5% CO2 incubator for 4 hours. • 3. The negative and positive control groups were treated with 5 µL of control solution (non-complete medium containing 1% v/v DMSO). Compound gradient dilutions were prepared using non-complete medium, and 5 µL of the dilutions were added to the corresponding culture wells. The final concentration of DMSO in the test was 0.1% v/v. Subsequently, the plate was incubated in a 37°C, 5% CO2 incubator for 144 hours. • 4. 40 µL of Cell Titer-Glo reagent was added directly to the cell culture, and the plate was incubated at room temperature in the dark for 30 minutes. The luminescence value was then read on a plate reader, and the results were used to analyze the cell proliferation ratio and compound activity. • 5. The signal value of the negative control group was set as Bottom, and the signal value of the positive control group was set as Top. The compound concentration value (logarithm) was the X-axis, and the luminescence reading at the corresponding concentration was the Y-axis, with HillSlope as the slope factor. A four-parameter logistic model (4PL logistic model) was used for fitting, and the calculation method was as follows:Y = Bottom + (Top - Bottom) / (1 + 10^((Log IC50 - X) × HillSlope))
After fitting, the IC50 value of the compound was calculated, and the proliferation inhibitory activity of the compound was compared based on the IC50 value.

[2] = target: EED protein (Homo sapiens, UniProt O75530); assay: EED protein degradation in Karpas-422 cells, In-cell western (ICW); conditions: 18 hours incubation
Text: In this experiment, In-cell western (ICW) method was used to quantitatively analyze the EED protein expression level in Karpas-422 cells to detect the degradation activity of the compounds on the target protein. The specific steps were as follows: • 1. Karpas-422 cells were purchased from Nanjing Cobioer (Catalog No. CBP60629), subcultured and maintained in logarithmic growth state using RPMI-1640 complete medium (containing 10% v/v fetal bovine serum) according to the supplier's recommended conditions. […] One day before cell seeding, a 384-well plate was coated with 30 µL of coating buffer (phosphate buffered saline containing 30 µg/mL poly-D-lysine) at room temperature for 2 hours. The coating solution was then discarded, and the plate was washed once with 90 µL of phosphate buffered saline, which was then discarded. The plate was allowed to air dry naturally in a clean bench, wrapped around the edges with Parafilm to prevent moisture, and stored in a 4°C refrigerator until use. • 3. Before cell seeding, cells were collected in a centrifuge tube, centrifuged at 250 rcf for 3 minutes, and the culture medium was discarded. The cells were resuspended in fresh complete medium, and 20 µL of the cell suspension was taken to calculate the cell concentration using a Countstar cell counter. After adjusting the density, cells were seeded into the prepared coated plate at 15,000 cells/45 µL and pre-incubated in a 37°C, 5% CO2 incubator for 4 hours. • 4. The negative and positive control groups were treated with 5 µL of control solution (serum-free medium containing 1% v/v DMSO). Compound gradient dilutions were prepared using the control solution, and 5 µL of the dilutions were added to the corresponding culture wells. The final concentration of DMSO in the test was 0.1% v/v. Subsequently, the plate was incubated in a 37°C, 5% CO2 incubator for 18 hours. • 5. The culture plate was removed, and cells were fixed by directly adding 10 µL of fixative solution (phosphate buffered saline containing 3% v/v glutaraldehyde) to the cells and incubating at room temperature for 30 minutes. The liquid was discarded. Subsequently, cells were treated with 30 µL of permeabilization staining solution (phosphate buffered saline containing 0.1% v/v Triton X-100 and 20 µg/mL Hoechst 33342) at room temperature for 30 minutes. The permeabilization solution was discarded, and the fluorescence value (excitation at 360 nm, emission at 460 nm) was read on a microplate reader. • 6. 50 µL of repair solution (50 mM citric acid buffer) was added to all wells, and the plate was incubated at 70°C for 2 hours on a constant temperature incubation shaker. The microplate was then removed, equilibrated to room temperature, and the liquid was discarded. • 7. A sufficient amount of antibody dilution buffer (Tris Buffered Saline-Tween solution containing 1% w/v bovine serum albumin) was prepared and stored in a 4°C refrigerator until use. • 8. Primary antibody dilution (EED antibody diluted 1:1000 with antibody dilution buffer) was prepared. 30 µL of antibody dilution buffer without antibody was added to the negative control group. 30 µL of the primary antibody dilution was added to the cells in the other groups, and the plate was incubated overnight at 4°C. • 9. The primary antibody dilution was discarded. The plate was washed 3 times with 90 µL of Tris Buffered Saline-Tween solution, and the wash solution was discarded. Secondary antibody dilution (HRP-linked antibody diluted 1:500 with antibody dilution buffer) was prepared, and 30 µL was added to the cells. The plate was incubated at room temperature for 2 hours. • 10. The secondary antibody dilution was discarded. The plate was washed 3 times with 90 µL of Tris Buffered Saline-Tween solution, and the wash solution was discarded. 30 µL of TMB substrate solution was added, and the plate was incubated at room temperature in the dark for 15 minutes. Then, 30 µL of stop solution (2 M sulfuric acid) was added to terminate the reaction. […]

**Q.** Which results are given for `Cc1ncsc1-c1ccc([C@H](C)NC(=O)[C@@H]2C[C@@H](O)CN2C(=O)C(c2cc(N3CCN(CC4CCN(c5ccc(-c6cnc(NCc7c(F)ccc8c7CCO8)n7cnnc67)cc5)CC4)CC3)no2)C(C)C)cc1` (some centres unmarked)?
**A.** IC50 [1]: 5 nM; Dmax [2]: 74%

**Q.** How did the IC50 [1] turn out when `Cn1nc(C2CCC(=O)NC2=O)c2ccc(N3CCC(F)(CN4CCC(c5ncc(-c6cnc(NCc7c(F)ccc8c7CCO8)n7cnc(Cl)c67)cn5)CC4)CC3)cc21` (centres unmarked) was run?
**A.** 0.35 nM

**Q.** And the Dmax [2]?
**A.** 69%

**Q.** What does the source list for `Cc1nc(-c2cnc(NCc3c(F)ccc4c3CCO4)n3cnc(Cl)c23)ccc1CN1CCC(N2CCN(c3ccc4c(C5CCC(=O)NC5=O)nn(C)c4c3)CC2)C(F)(F)C1` (centres unmarked)?
**A.** IC50 [1]: 2.48 nM; Dmax [2]: 51%

**Q.** Which IC50 [1] does the source give for `Cn1nc(C2CCC(=O)NC2=O)c2ccc(N3CCC(CN4CCC(c5ncc(-c6cnc(NCc7c(F)ccc8c7CCO8)n7cc(C#N)nc67)cn5)CC4)CC3)cc21` (centres unmarked) here?
**A.** 1 nM

**Q.** What about the Dmax [2] of the same compound?
**A.** 69%

**Q.** What does the source list for `Cn1nc(C2CCC(=O)NC2=O)c2cc(F)c(N3CCC(CN4CCC(c5ncc(-c6cnc(NCc7c(F)ccc8c7CCO8)n7cnc(Cl)c67)cn5)CC4)CC3)cc21` (centres unmarked)?
**A.** IC50 [1]: 21 nM; Dmax [2]: 39%

**Q.** With `Cn1c(=O)n(C2CCC(=O)NC2=O)c2ccc(N3CCC(CN4CCC(c5ccc(-c6cnc(NCc7c(F)ccc8c7CCO8)n7cnc(Cl)c67)cc5)CC4)C(F)(F)C3)cc21` (centres unmarked) as the compound, how does the IC50 [1] read?
**A.** 13 nM

**Q.** And the Dmax [2]?
**A.** 62%

**Q.** What does the source list for `Cn1nc(C2CCC(=O)NC2=O)c2ccc(N3CCN(C4CCN(Cc5ccc(-c6cnc(NCc7c(F)ccc8c7CCO8)n7cnc(Cl)c67)cc5)CC4(F)F)CC3)cc21` (centres unmarked)?
**A.** IC50 [1]: 5.83 nM; Dmax [2]: 47%

**Q.** For `Cc1nc(C2CCN(CC3CCN(c4ccc5c(c4)n(C)c(=O)n5C4CCC(=O)NC4=O)CC3)CC2)ccc1-c1cnc(NCc2c(F)ccc3c2CCO3)n2cnc(Cl)c12` (centres unmarked), which IC50 [1] is on record?
**A.** 15 nM

**Q.** What about the Dmax [2] of the same compound?
**A.** 41%

**Q.** Which IC50 [1] does the source give for `Cc1ncsc1-c1ccc([C@H](C)NC(=O)[C@@H]2C[C@@H](O)CN2C(=O)[C@@H](NC(=O)C2CN(c3ccc(-c4cnc(NCc5c(F)ccc6c5CCO6)n5cnc(I)c45)cc3)C2)C(C)(C)C)cc1` here?
**A.** 38 nM

**Q.** What about the Dmax [2] of the same compound?
**A.** 76%

**Q.** With `O=C1CCC(N2C(=O)c3ccc(N4CCC(CN5CCC(c6ccc(-c7cnc(NCc8c(F)ccc9c8CCO9)n8cnc(F)c78)cc6)CC5)CC4)cc3C2=O)C(=O)N1` (centres unmarked) as the compound, how does the IC50 [1] read?
**A.** 56 nM

**Q.** What about the Dmax [2] of the same compound?
**A.** 29%

**Q.** `Cc1nc(C2CCN(CC3CCN(c4ccc5c(c4)n(C)c(=O)n5C4CCC(=O)NC4=O)CC3)CC2)ccc1-c1cnc(NCc2c(F)ccc3c2CCO3)n2cc(C(N)=O)nc12` (centres unmarked) was tested. Which IC50 [1] did it give?
**A.** 0.5 nM

**Q.** What about the Dmax [2] of the same compound?
**A.** 65%

**Q.** `Cn1nc(C2CCC(=O)NC2=O)c2ccc(N3CCC(CN4CCC(NC(=O)c5ccc(-c6cnc(NCc7c(F)ccc8c7CCO8)n7cnc(Cl)c67)cn5)CC4)CC3)cc21` (centres unmarked) was tested. Which IC50 [1] did it give?
**A.** 0.7 nM

**Q.** And the Dmax [2]?
**A.** 66%

**Q.** Which IC50 [1] does the source give for `Cn1c(=O)n(C2CCC(=O)NC2=O)c2ccc(N3CCC(CN4CCC(c5ccc(-c6cnc(NCc7c(F)ccc8c7CCO8)n7cnc(Cl)c67)c(C(F)(F)F)n5)CC4)CC3)cc21` (centres unmarked) here?
**A.** 4.2 nM

**Q.** And the Dmax [2]?
**A.** 50%

**Q.** What does the source list for `Cc1nn(C2CCN(CC3CCN(c4ccc5c(C6CCC(=O)NC6=O)nn(C)c5c4)CC3)CC2)c(C)c1-c1cnc(NCc2c(F)ccc3c2CCO3)n2cnc(Cl)c12` (centres unmarked)?
**A.** IC50 [1]: 4 nM; Dmax [2]: 65%

**Q.** For `Cn1nc(C2CCC(=O)NC2=O)c2ccc(N3CCC(CN4CCC(c5ccc(-c6cnc(NCc7c(F)ccc8c7CCO8)n7cc(C#N)nc67)cc5)CC4)CC3)cc21` (centres unmarked), which IC50 [1] is on record?
**A.** 1.6 nM

**Q.** What about the Dmax [2] of the same compound?
**A.** 65%

**Q.** What does the source list for `Cn1c(=O)n(C2CCC(=O)NC2=O)c2ccc(N3CCC(CN4CCC(NC(=O)c5ccc(-c6cnc(NCc7c(F)ccc8c7CCO8)n7cnc(Cl)c67)cn5)CC4)CC3)cc21` (centres unmarked)?
**A.** IC50 [1]: < 0.1 nM; Dmax [2]: 67%

**Q.** What does the source list for `O=C1CCC(N2C(=O)c3ccc(N4CCC(CN5CCC(c6ccc(-c7cnc(NCc8c(F)ccc9c8CCO9)n8cnc(Cl)c78)cc6)CC5)CC4)cc3C2=O)C(=O)N1` (centres unmarked)?
**A.** IC50 [1]: 49 nM; Dmax [2]: 32%

**Q.** For `Cn1nc(C2CCC(=O)NC2=O)c2cc(F)c(N3CCC(CN4CCC(c5ccc(-c6cnc(NCc7c(F)ccc8c7CCO8)n7cnc(Cl)c67)cc5)CC4)CC3)cc21` (centres unmarked), which IC50 [1] is on record?
**A.** 6 nM

**Q.** What about the Dmax [2] of the same compound?
**A.** 63%

**Q.** Which IC50 [1] does the source give for `Cn1c(=O)n(C2CCC(=O)NC2=O)c2cc(F)c(N3CCC(CN4CCC(c5ccc(-c6cnc(NCc7c(F)ccc8c7CCO8)n7cnnc67)cc5)CC4)CC3)cc21` (centres unmarked) here?
**A.** 0.5 nM

**Q.** What about the Dmax [2] of the same compound?
**A.** 71%

**Q.** For `Cc1nc(C2CCN(CC3CCN(c4ccc5c(c4)n(C)c(=O)n5C4CCC(=O)NC4=O)CC3)CC2)ccc1-c1cnc(NCc2c(F)ccc3c2CCO3)n2cnc(S(C)(=O)=O)c12` (centres unmarked), which IC50 [1] is on record?
**A.** 0.7 nM

**Q.** What about the Dmax [2] of the same compound?
**A.** 61%

**Q.** `Cc1ncsc1-c1ccc([C@H](C)NC(=O)[C@@H]2C[C@@H](O)CN2C(=O)[C@@H](NC(=O)CCCNC(=O)c2ccc(-c3cnc(NCc4c(F)ccc5c4CCO5)n4cnc(Cl)c34)cn2)C(C)(C)C)cc1` was tested. Which IC50 [1] did it give?
**A.** 7 nM

**Q.** What about the Dmax [2] of the same compound?
**A.** 75%

**Q.** Which results are given for `Cn1c(=O)n(C2CCC(=O)NC2=O)c2ccc(N3CCC(CN4CCC(c5ccc(-c6cnc(NCc7c(F)ccc8c7CCO8)n7cnc(Cl)c67)cn5)CC4)CC3)cc21` (centres unmarked)?
**A.** IC50 [1]: < 0.1 nM; Dmax [2]: 66%
